Data on 40 compounds can be found in PubChem BioAssay AID2810 (NMMLSC, 2010).

The experiment can be described thus: modulators of CD8 T cell-vesicle binding, confirmation, cherry-picked primary hits, two concentrations (AID 2810).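 On all read-outs here: lower values mean blocking of vesicle binding.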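 On percent response (vesicle binding): ratio of mean FL2 vesicle stain of CD8+ cells to that row's control.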 The settings on record: 2C CD8+ T cell-vesicle binding, flow cytometry; for double positive events: CD8+/vesicle+ events. On the technique in general: In flow cytometry, cells or beads pass a laser one at a time.
Where [1] appears, read: at 15.4 µM, stronger effect = lower value.

The list shows a part of the results. Further columns of the screen follow, without active or inactive calls.

Where the note is “at 7.7 µM”, `CC(=O)Nc1ccc(NC(=O)C(C)OC(=O)[C@@H]2CCCN2C(=O)c2cccs2)cc1` (stereo not given in full) came in with a double positive events of 10.5% and a percent response (vesicle binding) of 141%. For the same compound, under setting [1], the double positive events was 23.1%.

Regarding `CCOC(=O)c1ccc(NC(=O)CN2C(=O)NC3(CCCCCCC3)C2=O)cc1`, for the setting “at 7.7 µM”, the double positive events stood at 18.9% and the percent response (vesicle binding) was determined as 185%. Under setting [1], the double positive events turned out to be 5.3%.

With `C=CC[C@@H](CC(=O)NCCO)C(=O)N[C@@H](COC(=O)[C@@H](CC=C)Cc1ccc(F)cc1)Cc1ccccc1`, the double positive events runs as follows: (at 7.7 µM) 38.5%; under setting [1], 33.5%. Under “at 7.7 µM”, the percent response (vesicle binding) came to 228%.

As for `Cc1ccc(C)c(S(=O)(=O)N2CCCC2CNC(=O)C(=O)NCCc2ccco2)c1` (stereo not given), for the setting “at 7.7 µM”, the double positive events was 9.6% and the percent response (vesicle binding) is 406%. The same compound came in with a double positive events under setting [1] of 5.9%.

As for `O=C(Cc1ccc2c(c1)OCCO2)Nc1cccc(S(=O)(=O)N2CCOCC2)c1`, the double positive events is, setting by setting: (at 7.7 µM) 13.8%; under setting [1], 28.5%. The percent response (vesicle binding) (at 7.7 µM) came out at 427%.

For the setting “at 7.7 µM”, `CC(=O)c1csc(-c2cccc(-c3nc4ccc(Cl)cn4c3NC3CCCCC3)c2)c1` displayed a double positive events of 29.6% and a percent response (vesicle binding) of 498%. The same compound returned a double positive events under setting [1] of 13.2%.

As to `Cc1nc2c(cc1C(=O)N/N=C/c1ccc(O)c(O)c1)c(=O)n(C)c(=O)n2C`, where the note is “at 7.7 µM”, the double positive events was determined as 43.3% and the percent response (vesicle binding) stood at 254%. Moreover, the double positive events under setting [1] was determined as 17.8%.

Where the note is “at 7.7 µM”, `C(=N\N=C\c1cccnc1)/c1cccnc1` registered a double positive events of 23.8% and a percent response (vesicle binding) of 185%. Under setting [1], the double positive events was determined as 6.4%.

Turning to `NC(=O)CSc1nnc2sc3ccccc3n12`, under “at 7.7 µM”, the double positive events was determined as 13.5% and the percent response (vesicle binding) came to 174%. Further, the double positive events under setting [1] was 17.2%.

As to `COc1cccc(/C=C2\SC(=O)N(CCC(=O)NNC(=O)c3ccccc3Cl)C2=O)c1`, the double positive events by setting is: (at 7.7 µM) 17%; under setting [1], 27%. Besides, the percent response (vesicle binding) (at 7.7 µM) was 164%.

Under “at 7.7 µM”, `COC(=O)CN(n1cnnc1)S(=O)(=O)c1ccccc1Cl` returned a double positive events of 32.1% and a percent response (vesicle binding) of 359%. This compound also showed a double positive events under setting [1] of 9.6%.

As for `CSc1cccc(NC(=O)CCCn2c(=O)c3cccn3c3cccnc32)c1`, under “at 7.7 µM”, the double positive events was 26.3% and the percent response (vesicle binding) is 210%. For the same compound, the double positive events under setting [1] came to 3%.

On to `COc1ccc(CC(=O)OCC(=O)N2CCN(S(=O)(=O)c3ccc(C)cc3C)CC2)cc1`, for which, under “at 7.7 µM”, the double positive events came to 6.8% and the percent response (vesicle binding) came to 92%. The double positive events under setting [1] amounted to 6.3%.

As for `Cc1cs/c(=N\N=C\c2cccc([N+](=O)[O-])c2)n1Cc1ccco1`, where the note is “at 7.7 µM”, the double positive events is 7.5% and the percent response (vesicle binding) was 232%. This compound had a double positive events under setting [1] of 24.4%.

On to `CCCCOc1ccc(CC(=O)NCC(=O)O)cc1`, for which, where the note is “at 7.7 µM”, the double positive events amounted to 12.7% and the percent response (vesicle binding) came out at 385%. This compound returned a double positive events under setting [1] of 14.2%.

For the compound `Cc1nc2ccccc2cc1C(=O)N/N=C/c1cccs1`, the double positive events came to 23.9% (at 7.7 µM) and 7.9% under setting [1]. Where the note is “at 7.7 µM”, the percent response (vesicle binding) stood at 181%.

As to `CCN(C(=S)Nc1ccccc1F)C1CCCCC1`, the double positive events turned out to be 37.6% (at 7.7 µM) and 29.9% under setting [1]. The percent response (vesicle binding) (at 7.7 µM) was determined as 217%.

Regarding `CCn1c(Cc2ccc(OC)cc2)nnc1SCC(=O)NC1CC1`, the double positive events reads like this: (at 7.7 µM) 26.7%; under setting [1], 12%. Further, the percent response (vesicle binding) (at 7.7 µM) stood at 216%.

Where the note is “at 7.7 µM”, `CC(OC(=O)c1ccc(-n2cnnn2)cc1)C(=O)Nc1ccccc1F` (stereo not given) registered a double positive events of 11.2% and a percent response (vesicle binding) of 409%. Moreover, the double positive events under setting [1] stood at 16.8%.

As for `Nn1c(Cc2ccccc2F)nnc1SCC(=O)Nc1cccc(S(=O)(=O)NC2=NCCCCC2)c1`, under “at 7.7 µM”, the double positive events is 16.1% and the percent response (vesicle binding) worked out at 154%. Besides, the double positive events under setting [1] was determined as 13.7%.

`Cc1cccc(C)c1NC(=O)CNC(=O)C(C)NC(C)c1ccccc1Br` (stereo not given): where the note is “at 7.7 µM”, the double positive events stood at 30.2% and the percent response (vesicle binding) is 306%. The double positive events under setting [1] was determined as 15.3%.

Under “at 7.7 µM”, `COc1ccc(NC(=O)[C@@H](NC(=O)c2ccccc2F)C(C)C)cc1S(=O)(=O)N1CCOCC1` came in with a double positive events of 6.1% and a percent response (vesicle binding) of 219%. The double positive events under setting [1] was found to be 13.1%.

Consider `CCOc1ccc2nnc(-c3ccc(Br)cc3)n2n1`, for which the double positive events is 19.8% (at 7.7 µM) and 10.7% under setting [1]. Also, the percent response (vesicle binding) (at 7.7 µM) is 583%.

On to `C=CCNC(=O)c1ccc(-c2ccc([N+](=O)[O-])cc2)o1`, for which the double positive events reads like this: (at 7.7 µM) 12.1%; under setting [1], 18%. In addition, the percent response (vesicle binding) (at 7.7 µM) was 431%.

Where the note is “at 7.7 µM”, `COc1ccc(C(=S)NCS(=O)(=O)c2ccc(C)cc2)cc1` yielded a double positive events of 32.6% and a percent response (vesicle binding) of 519%. This compound came in with a double positive events under setting [1] of 27.7%.

Turning to `Cc1[nH]c2ccccc2c1C(=O)CN1C(=O)C(=O)N(CCC2=CCCCC2)C1=O`, the double positive events by setting is: (at 7.7 µM) 13.9%; under setting [1], 28%. The compound also displayed a percent response (vesicle binding) (at 7.7 µM) of 387%.

In the case of `O=C1CN(C(=O)c2ccc(F)cc2)c2ccccc2N1`, for the setting “at 7.7 µM”, the double positive events is 16.8% and the percent response (vesicle binding) came to 222%. In addition, the double positive events under setting [1] was 25.6%.

In the case of `CC(NCc1ccccc1Cl)C(=O)Nc1ccc(S(=O)(=O)N2CCCC2)cc1` (stereo not given), under “at 7.7 µM”, the double positive events turned out to be 28.7% and the percent response (vesicle binding) was 186%. Further, under setting [1], the double positive events was found to be 20.6%.

Where the note is “at 7.7 µM”, `CCNC(=S)Nc1ccc(Cl)cc1Cl` showed a double positive events of 22.7% and a percent response (vesicle binding) of 349%. Besides, the double positive events under setting [1] stood at 16.3%.

`C/C(=N/NC(=O)c1cccc(C)c1)c1c(O)cc(C)oc1=O`: for the setting “at 7.7 µM”, the double positive events turned out to be 32.1% and the percent response (vesicle binding) came to 365%. This compound yielded a double positive events under setting [1] of 11.8%.

Where the note is “at 7.7 µM”, `CCCCC(CC(O)COCCC)C(=O)NN` (stereo not given) gave a double positive events of 31.4% and a percent response (vesicle binding) of 127%. This compound showed a double positive events under setting [1] of 6.8%.

Where the note is “at 7.7 µM”, `C/C=C(/C)C(=O)O[C@@H]1[C@H](OC(C)=O)c2c(ccc3ccc(=O)oc23)OC1(C)C` registered a double positive events of 23.2% and a percent response (vesicle binding) of 234%. Under setting [1], this compound registered a double positive events of 13.6%.

As for `CCOc1ccc(C(=O)NNC(=O)CN2C(=O)C3CC=CCC3C2=O)cc1OC` (stereo not given), where the note is “at 7.7 µM”, the double positive events was 24.7% and the percent response (vesicle binding) was 243%. Further, the double positive events under setting [1] is 32.8%.

For `CCOc1ccc(NC(=O)CN(C)C(=O)C2CC(=O)N(Cc3ccco3)C2)cc1OCC` (stereo not given), the double positive events came out at 9% (at 7.7 µM) and 22.3% under setting [1]. The percent response (vesicle binding) (at 7.7 µM) came to 342%.

As to `O=C(CCN1CCOCC1)c1ccc(N2CCCCC2)cc1`, the double positive events runs as follows: (at 7.7 µM) 30.8%; under setting [1], 13.8%. This compound also returned a percent response (vesicle binding) (at 7.7 µM) of 233%.

Under “at 7.7 µM”, `COc1ccc(/C=N\NC(=O)c2ccccc2OC)cc1COc1c(F)c(F)c(F)c(F)c1F` yielded a double positive events of 18.6% and a percent response (vesicle binding) of 239%. Besides, the double positive events under setting [1] amounted to 42.2%.

For the compound `O=C(Cc1cccs1)NNC(=O)c1ccc(F)cc1`, under “at 7.7 µM”, the double positive events came to 18.8% and the percent response (vesicle binding) was 206%. The same compound came in with a double positive events under setting [1] of 23.6%.

In turn, `COc1cc(C)c(NC(=O)COc2cccc3c2OC(C)(C)C3)cc1OC` gave a double positive events (at 7.7 µM) of 47% and a double positive events under setting [1] of 19.2%. Where the note is “at 7.7 µM”, this compound came in with a percent response (vesicle binding) of 278%.

For the setting “at 7.7 µM”, `Nc1ccc(-c2nnc(-c3ccccc3)o2)cc1` came in with a double positive events of 14.9% and a percent response (vesicle binding) of 112%. This compound had a double positive events under setting [1] of 32%.

For the compound `COc1cccc(OC)c1C(=O)Nc1cccc(C(C)=O)c1`, where the note is “at 7.7 µM”, the double positive events was determined as 37.1% and the percent response (vesicle binding) worked out at 327%. This compound had a double positive events under setting [1] of 12.7%.
